Results are given in words; binding and its absence hold for the method and conditions named. In cells and extracts the contact can be indirect. Some results given as binding are weak or reduced against the parent protein; the word gives no strength.
How the values were obtained:
[1] = target: Raptor (endogenous, H1299) (human (endogenous in H1299)) (UniProt Q8N122); experiment: co-IP; endogenous proteins, whole cell extracts of H1299 cells; anti-NBS1 or anti-Raptor antibody, protein-A beads; Western blot
Flag-NBS1 full length = Flag-NBS1 full length (UniProt O60934); experiment: co-IP; whole cell extracts of 293T cells overexpressing both proteins; lysis in 150 mM NaCl, 1% Nonidet P-40, 1% deoxycholate, 0.1% SDS, 50 mM Tris.HCl pH 7.5; protein-A beads; washed 3 times with TNTG buffer; Western blot

Sequences of proteins named here, by UniProt entry; tags and fusion partners are left off. Residues count along the entry.
UniProt Q8N122: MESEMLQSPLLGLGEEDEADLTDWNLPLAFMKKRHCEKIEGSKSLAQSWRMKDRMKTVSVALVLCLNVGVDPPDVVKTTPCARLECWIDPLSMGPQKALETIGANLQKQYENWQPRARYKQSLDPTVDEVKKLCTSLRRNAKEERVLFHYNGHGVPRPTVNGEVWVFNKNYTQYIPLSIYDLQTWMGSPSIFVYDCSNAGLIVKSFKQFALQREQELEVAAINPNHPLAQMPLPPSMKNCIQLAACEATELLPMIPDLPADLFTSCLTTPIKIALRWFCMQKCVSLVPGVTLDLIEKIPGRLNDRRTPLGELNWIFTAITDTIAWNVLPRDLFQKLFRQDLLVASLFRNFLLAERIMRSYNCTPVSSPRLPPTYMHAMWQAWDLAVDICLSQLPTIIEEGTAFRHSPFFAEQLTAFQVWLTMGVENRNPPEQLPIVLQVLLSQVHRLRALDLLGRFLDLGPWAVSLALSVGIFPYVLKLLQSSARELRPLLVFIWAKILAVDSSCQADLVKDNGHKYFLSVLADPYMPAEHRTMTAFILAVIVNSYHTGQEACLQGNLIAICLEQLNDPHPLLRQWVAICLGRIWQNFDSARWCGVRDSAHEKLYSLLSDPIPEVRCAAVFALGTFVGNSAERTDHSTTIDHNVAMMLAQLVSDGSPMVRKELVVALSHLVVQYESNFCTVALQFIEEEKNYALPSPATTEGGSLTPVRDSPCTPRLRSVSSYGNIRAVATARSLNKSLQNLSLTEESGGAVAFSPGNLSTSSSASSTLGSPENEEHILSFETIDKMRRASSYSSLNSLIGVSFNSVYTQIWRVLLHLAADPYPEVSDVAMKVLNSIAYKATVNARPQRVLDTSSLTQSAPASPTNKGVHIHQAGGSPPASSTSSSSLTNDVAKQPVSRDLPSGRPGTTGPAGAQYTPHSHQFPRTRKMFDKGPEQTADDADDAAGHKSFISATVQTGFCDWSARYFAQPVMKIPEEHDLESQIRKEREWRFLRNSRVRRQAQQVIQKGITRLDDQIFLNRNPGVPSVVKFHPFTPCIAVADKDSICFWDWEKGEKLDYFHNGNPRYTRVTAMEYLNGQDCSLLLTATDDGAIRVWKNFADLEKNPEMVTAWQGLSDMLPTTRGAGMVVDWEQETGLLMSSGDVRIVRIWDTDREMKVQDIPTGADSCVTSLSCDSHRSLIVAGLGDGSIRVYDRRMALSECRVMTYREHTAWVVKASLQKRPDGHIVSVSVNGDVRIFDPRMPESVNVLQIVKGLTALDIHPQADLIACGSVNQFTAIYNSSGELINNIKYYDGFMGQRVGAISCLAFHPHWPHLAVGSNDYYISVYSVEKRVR
UniProt O60934: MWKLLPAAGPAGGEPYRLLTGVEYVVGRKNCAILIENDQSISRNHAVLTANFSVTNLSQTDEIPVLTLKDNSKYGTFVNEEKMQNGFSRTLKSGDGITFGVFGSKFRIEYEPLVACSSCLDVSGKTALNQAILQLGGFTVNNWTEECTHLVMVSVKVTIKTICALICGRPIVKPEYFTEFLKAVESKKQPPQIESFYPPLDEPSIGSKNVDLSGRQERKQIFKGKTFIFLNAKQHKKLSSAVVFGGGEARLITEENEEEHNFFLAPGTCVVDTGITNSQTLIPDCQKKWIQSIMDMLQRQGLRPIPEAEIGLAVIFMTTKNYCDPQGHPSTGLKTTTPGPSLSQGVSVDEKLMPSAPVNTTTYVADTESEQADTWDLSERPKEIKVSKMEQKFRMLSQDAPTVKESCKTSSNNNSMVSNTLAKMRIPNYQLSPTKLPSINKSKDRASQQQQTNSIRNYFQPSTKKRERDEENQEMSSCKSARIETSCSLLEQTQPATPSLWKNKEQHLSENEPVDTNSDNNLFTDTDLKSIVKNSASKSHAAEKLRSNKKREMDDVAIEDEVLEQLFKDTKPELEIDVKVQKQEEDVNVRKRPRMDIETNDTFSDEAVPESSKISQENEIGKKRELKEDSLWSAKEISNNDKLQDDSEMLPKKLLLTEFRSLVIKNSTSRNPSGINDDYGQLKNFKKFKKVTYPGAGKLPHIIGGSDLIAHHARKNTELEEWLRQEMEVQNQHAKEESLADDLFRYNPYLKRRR
UniProt Q6R327, residues 1-789: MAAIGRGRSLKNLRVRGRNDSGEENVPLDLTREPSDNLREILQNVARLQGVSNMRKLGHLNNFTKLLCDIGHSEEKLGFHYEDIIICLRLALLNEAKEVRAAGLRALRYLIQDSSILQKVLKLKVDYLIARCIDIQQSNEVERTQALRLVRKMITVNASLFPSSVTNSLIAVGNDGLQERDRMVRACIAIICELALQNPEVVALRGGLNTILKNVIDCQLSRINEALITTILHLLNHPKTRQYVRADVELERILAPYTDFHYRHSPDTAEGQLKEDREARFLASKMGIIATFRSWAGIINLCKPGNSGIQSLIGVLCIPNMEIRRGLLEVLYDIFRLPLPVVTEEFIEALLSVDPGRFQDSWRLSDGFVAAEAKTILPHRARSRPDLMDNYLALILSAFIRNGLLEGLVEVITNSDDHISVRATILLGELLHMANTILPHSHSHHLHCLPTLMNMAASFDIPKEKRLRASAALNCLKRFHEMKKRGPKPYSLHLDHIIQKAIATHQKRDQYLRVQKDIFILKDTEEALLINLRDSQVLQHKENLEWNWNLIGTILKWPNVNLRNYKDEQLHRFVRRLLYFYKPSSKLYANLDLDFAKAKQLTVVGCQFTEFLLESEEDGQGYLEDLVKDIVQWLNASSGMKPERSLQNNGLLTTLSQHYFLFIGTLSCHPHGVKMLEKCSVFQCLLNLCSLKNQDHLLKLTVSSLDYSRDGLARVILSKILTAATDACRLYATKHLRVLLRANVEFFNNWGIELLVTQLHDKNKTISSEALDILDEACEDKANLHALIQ

| binding [1] | binding (Flag-NBS1 full length) | Substance |
| --- | --- | --- |
| no binding | – | NBS1 (endogenous, H1299) (from UniProt O60934 1-754) |
| – | binds | Myc-Rictor1-789 (pCMV-Myc-Rictor 1-789) (from UniProt Q6R327 1-789) (domain or fragment) |
